Laboratory results: PubChem BioAssay AID1259405 (NCATS, 2018)
Shown is a random part of about 50,000 reagents. Of all reagents, about 4,000 (8%) are marked active. 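Mouse siRNA library applied to hamster cells; one well for each siRNA.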 Unmarked entries are inactive. The numbers tell different reagents against one gene apart.

Aim: 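Knock-downs that lift recombinant protein yield in hamster ovary cells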 (primary screen)
Cell system: Chinese hamster CHO-K1 ovary cells with stable secreted eGFP expression
Knock-down reagent: single siRNA against mouse genes, 0.8 pmol siRNA per well (2 µl of 400 nM stock)
Timing: 3 days
Read-out: 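Per-well intracellular GFP measured by laser scanning cytometry, plus viability from ATP luminescence, each relative to plate median of non-targeting control wells, in %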
Scale: GFP, % of control: higher = more GFP per well, higher productivity; viability (ATP), % of control: higher = more viable cells (more ATP)
Call rule: 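Called active when intracellular GFP, relative to negative control, is at or above 120%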

Tamm41 #1 scored GFP, % of control 76.3; viability (ATP), % of control 86.5.
For Tamm41 #2 the deposit lists GFP, % of control 87.5; viability (ATP), % of control 68.7.
Against Tamm41 #3 the deposit lists GFP, % of control 52.1; viability (ATP), % of control 51.3.
Against Thsd4 (thrombospondin, type I, domain containing 4) #1, the entry reads GFP, % of control 102; viability (ATP), % of control 87.4.
Depletion of Thsd4 (thrombospondin, type I, domain containing 4) #2 resulted in: GFP, % of control 97.5; viability (ATP), % of control 74.1.
P2ry6 (pyrimidinergic receptor P2Y, G-protein coupled, 6) #1 showed GFP, % of control 72.5; viability (ATP), % of control 61.5.
P2ry6 (pyrimidinergic receptor P2Y, G-protein coupled, 6) #2 showed GFP, % of control 65.2; viability (ATP), % of control 68.4.
Against P2ry6 (pyrimidinergic receptor P2Y, G-protein coupled, 6) #3, the entry reads GFP, % of control 112; viability (ATP), % of control 80.4.

Entries listed so far whose gene name begins with P or p:
P2ry6 (pyrimidinergic receptor P2Y, G-protein coupled, 6) #1 | GFP, % of control: 72.5; viability (ATP), % of control: 61.5
P2ry6 (pyrimidinergic receptor P2Y, G-protein coupled, 6) #2 | GFP, % of control: 65.2; viability (ATP), % of control: 68.4
P2ry6 (pyrimidinergic receptor P2Y, G-protein coupled, 6) #3 | GFP, % of control: 112; viability (ATP), % of control: 80.4

The results go on:
Depletion of Tef (thyrotroph embryonic factor) #1 came out at: GFP, % of control 68.4; viability (ATP), % of control 58.
Tef (thyrotroph embryonic factor) #2 gave GFP, % of control 67; viability (ATP), % of control 73.2.
Tef (thyrotroph embryonic factor) #3 showed GFP, % of control 72.3; viability (ATP), % of control 67.6.
Nr2c2ap (nuclear receptor 2C2-associated protein) #1 showed GFP, % of control 63.9; viability (ATP), % of control 76.4.
After knock-down of Nr2c2ap (nuclear receptor 2C2-associated protein) #2 the results were GFP, % of control 117; viability (ATP), % of control 96.3.
Silencing of Nr2c2ap (nuclear receptor 2C2-associated protein) #3 came out at: GFP, % of control 66.3; viability (ATP), % of control 79.7.
After knock-down of Pcdha9 (protocadherin alpha 9) #1, the screen gave GFP, % of control 99.2; viability (ATP), % of control 93.5.
Pcdha9 (protocadherin alpha 9) #2 showed GFP, % of control 76.6; viability (ATP), % of control 61.2.
Pcdha9 (protocadherin alpha 9) #3 scored GFP, % of control 73.1; viability (ATP), % of control 73.5.
